# Measurements reported in PubChem BioAssay AID540256 (National Center for Advancing Translational Sciences (NCATS), 2011).
# In all, about 300,000 compounds went through this assay and about 3,700 (1.2%) were called active. This list was built around the results that the source calls inconclusive (neither active nor inactive); the mix of calls is not that of the screen. Calls come from the whole dose curve; tested in HEK293 cells. Potencies beside an inconclusive call are fits to weak or partial responses and may not hold up.
# Experiment: qHTS for Inhibitors of binding or entry into cells for Lassa Virus; note: nearly all actives have a fitted effect of over 50% in size
# Conditions: Lassa virus pseudotype entry inhibition, cell reporter; activity change, negative = inhibition: at 37.9 µM (top of the series) unless noted
# % is set by controls: 0 for no effect and ±100 for the full control effect; potency is the fitted concentration of half-maximal effect.
Compound,Potency,"activity change, negative = inhibition"
O=c1[nH]c(SCCOc2cccc3ccccc23)nc2ccccc12,"inconclusive: 20 µM [inhibitor, partial curve, poor fit]",–
COc1cc(OC)cc(-c2nc3n(n2)C(c2ccccc2F)C(C(=O)Nc2cccnc2)=C(C)N3)c1 (stereo unspecified),–,inactive: 0.268% [at 46.1 µM]
C1=NCCc2c1[nH]c1ccccc21,active: 5.01 µM,–
CCc1ccccc1NC(=O)c1cnccn1,–,inactive: 8.51%
CCc1ccc(C2C(C(=O)Nc3ccccc3)=C(C)Nc3c(C(=O)Nc4ccc(C)cc4)cnn32)cc1 (stereo unspecified),"inconclusive: 35.5 µM [inhibitor, partial curve, poor fit]",–
CN(CCC#N)C(=O)COC(=O)c1cc(Cl)cc(Cl)c1N,"inconclusive: 0.058 µM [activator, full curve, poor fit]",–
Nc1cccc2c1C(=O)N(CCOc1ccc(F)cc1)C2=O,"inconclusive: 11.2 µM [inhibitor, single point]",–
O=C(c1ccco1)N(Cc1cccnc1)c1nc2ccc(F)cc2s1,–,inactive: -17.5% [at 46.1 µM]
c1ccc(OCc2nc3ccccc3[nH]2)cc1,"inconclusive: 29.1 µM [activator, single point]",–
O=C(O)c1cccc(Nc2ncnc3sccc23)c1,"inconclusive: 10 µM [inhibitor, partial curve, poor fit]",–
CCC(CO)[n+]1c(C)cc(/C=C2\Sc3ccccc3N2Cc2ccccc2)cc1C (stereo unspecified),"inconclusive: 35.5 µM [inhibitor, single point]",–
CN(c1ccccc1)S(=O)(=O)c1ccc(NC(=S)NC(=O)c2ccccc2)cc1,"inconclusive: 35.5 µM [inhibitor, single point]",–
Cc1ccc2c(c1)cc(C(=O)Nc1ccccc1C)n2C,"inconclusive: 0.562 µM [inhibitor, full curve, poor fit]",–
CCOC(=O)c1c(C)[nH]c(C(=O)OCC(=O)NCCc2ccc(OCC)c(OCC)c2)c1C,–,inactive: -12.7%
COCOCCn1cc(CN2CCS(=O)(=O)N(Cc3ccc(-c4cccc(N(C)C)c4)cc3)C(CC(C)C)C2=O)nn1 (stereo unspecified),–,inactive: 6.61% [at 46.1 µM]
Cc1ccc(OCC(=O)NCCS(=O)(=O)N2CCN(c3ccccc3)CC2)cc1,"inconclusive: 7.08 µM [inhibitor, full curve, poor fit]",–
C#CCn1c(=NC(=O)c2ccc(Br)s2)sc2cc(NC(C)=O)ccc21,–,inactive: -0.911%
CN1CCc2c(c3ccccc3n2C)C1,–,inactive: 1.77%
COc1ccccc1-c1nnc(Nc2nc3c(OC)cccc3s2)o1,"inconclusive: 3.55 µM [inhibitor, partial curve, poor fit]",–
N#CC1CC(c2ccccc2)=NN1c1ccccc1[N+](=O)[O-] (stereo unspecified),"inconclusive: 15.8 µM [inhibitor, single point]",–
Oc1ccccc1O,"inconclusive: 11.6 µM [inhibitor, partial curve]",–
O=C(Nc1cccc(C(=O)O)c1)Nc1ccccc1Cl,active: 3.98 µM,–

Compound,Potency,"activity change, negative = inhibition"
O=S(=O)(/N=C(/Nc1ccc(Cl)c(S(=O)(=O)Nc2ccccc2Cl)c1)c1ccc(F)cc1)c1ccccc1,"inconclusive: 25.1 µM [inhibitor, single point]",–
Cc1ccc(CCNC(=O)C2=CCN(S(=O)(=O)c3ccccc3)CC2)cc1,"inconclusive: 31.6 µM [inhibitor, partial curve, poor fit]",–
CCn1c(-c2ccccc2Cl)nn(CC(=O)Nc2cc(Cl)ccc2Cl)c1=S,"inconclusive: 25.1 µM [inhibitor, single point]",–
O=C(CCC(=O)Nc1ccc(Cl)cc1Cl)N/N=C/c1ccc([N+](=O)[O-])o1,"inconclusive: 29.1 µM [inhibitor, single point]",–
Cc1cc(OCCCC(=O)Nc2cc(S(=O)(=O)N3CCOCC3)ccc2N2CCOCC2)ccc1Cl,"inconclusive: 22.4 µM [inhibitor, single point]",–
Cc1ccnc(NC(c2ccccc2)c2ccc3cccnc3c2O)c1 (stereo unspecified),"inconclusive: 3.55 µM [inhibitor, single point]",–
Cc1ccc(OCc2nc3ccccc3[nH]2)cc1,"inconclusive: 11.2 µM [inhibitor, partial curve, poor fit]",–
Cc1ccc(S(=O)(=O)CCC(=O)OCC(=O)N(C)C2CCS(=O)(=O)C2)cc1 (stereo unspecified),"inconclusive: 6.31 µM [activator, partial curve]",–
O=C(Nn1cnnc1)c1cccc(S(=O)(=O)N2CCOCC2)c1,"inconclusive: 5.62 µM [activator, single point]",–
O=c1[nH]c(=O)n(CCC2=CCCCC2)c(O)c1C=NC1CCN(Cc2ccccc2)CC1,"inconclusive: 7.08 µM [inhibitor, partial curve]",–
Cc1ccc(S(=O)(=O)N2CCCC2CNC(=O)c2ccc(F)c(F)c2)cc1 (stereo unspecified),–,inactive: -26.2%
CC(=O)c1c(C)[nH]c(C(=O)OCc2cccc(C)c2)c1C,"inconclusive: 35.5 µM [inhibitor, single point]",–
Cc1ccc(Cn2nnc3c(=O)[nH]c(C4CCN(S(=O)(=O)/C=C/c5ccccc5)CC4)nc32)cc1,"inconclusive: 10 µM [inhibitor, partial curve, poor fit]",–
Cc1ccc(S(=O)(=O)N2CCCCC2)cc1C(=O)NCCCN1CCOCC1,"inconclusive: 35.5 µM [activator, single point]",–
O=C(Nc1cccc(Cl)c1)Nc1cccc(C(=O)O)c1,"inconclusive: 22.4 µM [inhibitor, partial curve, poor fit]",–
Fc1ccc(N=Cc2ccc[nH]2)cc1,–,inactive: 18%
COc1ccc(C2c3c(oc4ccccc4c3=O)C(=O)N2CCCN2CCOCC2)cc1 (stereo unspecified),–,inactive: -3.27%
CCOc1ccccc1N(C)C(=O)Cn1cnc2sc(C)c(S(=O)(=O)N3CCC(C)CC3)c2c1=O,–,inactive: 0.538% [at 46.1 µM]
CC(=O)N(Cc1nc2sc(C)c(C)c2c(=O)[nH]1)C1CCCC1,"inconclusive: 12.6 µM [inhibitor, partial curve, poor fit]",–
COc1ccccc1CC(=O)NC12CC3CC(CC(C3)C1)C2,"inconclusive: 35.5 µM [inhibitor, single point]",–
CC(C)(C)c1ccc(-c2n[nH]c(=S)n2Cc2ccccc2)cc1,"inconclusive: 4.47 µM [inhibitor, partial curve]",–
CCN(CC)c1ccc(NC(=O)C(Cc2ccccc2)NS(=O)(=O)c2ccc(Br)s2)c(C)c1 (stereo unspecified),–,inactive: 0.654% [at 46.1 µM]

Compound,Potency,"activity change, negative = inhibition"
COc1ccc2[nH]cc(C(O)CN3CCN(c4ccccc4F)CC3)c2c1 (stereo unspecified),"inconclusive: 1.78 µM [inhibitor, partial curve, poor fit]",–
Cc1onc(-c2ccccc2)c1C(=O)N/N=C/c1cc2c(cc1Br)OCO2,"inconclusive: 31.6 µM [inhibitor, single point]",–
CC(C)N1C/C(=C/c2ccsc2)C(=O)/C(=C/c2ccsc2)C1,active: 3.98 µM,–
O=C(Nc1cccc(Cl)c1)c1c(NC(=O)C(F)(F)F)sc2c1CCCC2,"inconclusive: 5.01 µM [inhibitor, full curve, poor fit]",–
O=C(c1ccc(Cl)c(S(=O)(=O)N2CCOCC2)c1)N(Cc1ccco1)Cc1cccs1,"inconclusive: 5.01 µM [inhibitor, partial curve, poor fit]",–
Cc1nn(-c2nc3ccccc3n2Cc2ccccc2)c2c1C(=O)CC(C)(C)C2,"inconclusive: 35.5 µM [inhibitor, single point]",–
Cc1ccc(S(=O)(=O)N2CCOCC2)cc1NC(=O)COc1ccc2c(C)cc(=O)oc2c1,"inconclusive: 12.6 µM [inhibitor, single point]",–
C[C@]12CCC(=O)C=C1CC[C@@H]1[C@@H]2[C@@H](O)C[C@@]2(C)[C@H]1CC[C@]2(O)C(=O)COC(=O)CCC(=O)O,"inconclusive: 6.51 µM [inhibitor, single point]",–
Cc1cccc(N2CCN(S(=O)(=O)c3ccc4c(c3)CCCN4C(=O)C3CCC3)CC2)c1C,active: 6.31 µM,–
COc1ccccc1N1CCN(C(=O)Cn2ncc3c(=O)oc4ccccc4c32)CC1,–,inactive: -3.91% [at 46.1 µM]
Cc1ccc(Cl)cc1N1CCN(C(=O)CSc2nnc3n2C(C)(C)Cc2ccccc2-3)CC1,"inconclusive: 16.4 µM [inhibitor, partial curve, poor fit]",–
O=C(COC(=O)c1nc(Cl)ccc1Cl)c1ccc[nH]1,–,inactive: -8.49%
CCn1c(SCC(=O)NCc2ccco2)nnc1-c1cccs1,"inconclusive: 0.82 µM [inhibitor, full curve, poor fit]",–
O=C(CSc1nnc(Cc2cccs2)n1-c1ccc(Cl)cc1)NCc1ccc2c(c1)OCO2,–,inactive: -1.5%
COc1ccc(C(CCNCc2ccc(OC(C)C)cc2)C(C)C)cc1 (stereo unspecified),"inconclusive: 7.94 µM [inhibitor, partial curve]",–
C/C(=N\Nc1nc(N2CCCCC2)nc(N2CCOCC2)n1)c1ccccc1O,active: 7.08 µM,–
CS(=O)(=O)Cc1cccc(C(=O)NN(c2ccccc2)c2ccccc2)c1,"inconclusive: 12.6 µM [inhibitor, single point]",–
COc1ccc(C)cc1Cn1c(S(C)(=O)=O)nc2ccccc21,–,inactive: 21.3%
CCC(Sc1nnc(C)n2c1cc1occc12)C(=O)Nc1ccccc1F (stereo unspecified),–,inactive: 5.98% [at 46.1 µM]
Cc1cc(CO)nn1-c1ccc([N+](=O)[O-])cc1,"inconclusive: 7.08 µM [activator, partial curve, poor fit]",–
COc1ccc(/C=C(/NC(=O)c2ccccc2)C(=O)N/N=C/c2ccncc2)c(OC)c1,"inconclusive: 4.47 µM [inhibitor, partial curve, poor fit]",–
Cc1nn(C(=O)c2cc3sccc3[nH]2)c(C)c1C,"inconclusive: 0.73 µM [activator, full curve, poor fit]",–

# A second format for part of the listing above:
Compound	Potency	activity change, negative = inhibition
CN(CCC#N)C(=O)COC(=O)c1cc(Cl)cc(Cl)c1N	inconclusive: 0.058 µM [activator, full curve, poor fit]	–
O=C(c1ccco1)N(Cc1cccnc1)c1nc2ccc(F)cc2s1	–	inactive: -17.5% [at 46.1 µM]
CCOC(=O)c1c(C)[nH]c(C(=O)OCC(=O)NCCc2ccc(OCC)c(OCC)c2)c1C	–	inactive: -12.7%
COCOCCn1cc(CN2CCS(=O)(=O)N(Cc3ccc(-c4cccc(N(C)C)c4)cc3)C(CC(C)C)C2=O)nn1 (stereo unspecified)	–	inactive: 6.61% [at 46.1 µM]
O=S(=O)(/N=C(/Nc1ccc(Cl)c(S(=O)(=O)Nc2ccccc2Cl)c1)c1ccc(F)cc1)c1ccccc1	inconclusive: 25.1 µM [inhibitor, single point]	–
CC(=O)c1c(C)[nH]c(C(=O)OCc2cccc(C)c2)c1C	inconclusive: 35.5 µM [inhibitor, single point]	–
Cc1ccc(S(=O)(=O)N2CCCCC2)cc1C(=O)NCCCN1CCOCC1	inconclusive: 35.5 µM [activator, single point]	–
O=C(Nc1cccc(Cl)c1)Nc1cccc(C(=O)O)c1	inconclusive: 22.4 µM [inhibitor, partial curve, poor fit]	–
COc1ccc2[nH]cc(C(O)CN3CCN(c4ccccc4F)CC3)c2c1 (stereo unspecified)	inconclusive: 1.78 µM [inhibitor, partial curve, poor fit]	–
Cc1onc(-c2ccccc2)c1C(=O)N/N=C/c1cc2c(cc1Br)OCO2	inconclusive: 31.6 µM [inhibitor, single point]	–
O=C(c1ccc(Cl)c(S(=O)(=O)N2CCOCC2)c1)N(Cc1ccco1)Cc1cccs1	inconclusive: 5.01 µM [inhibitor, partial curve, poor fit]	–
C/C(=N\Nc1nc(N2CCCCC2)nc(N2CCOCC2)n1)c1ccccc1O	active: 7.08 µM	–
